The exact form of at least one protein or probe is not confirmed. At least one verdict was read from the data and is not stated in words by the source. For some of these results: Tags and fusion partners may be left off the protein sequences shown.

Results on two sequences are retold here after article doi:10.1101/2020.09.12.286559 (bioRxiv, 2020).

The test system of one data set is TRF1 + TIN2S. Kind of data set: TIRFM DNA-DNA bridging. The settings on record: TIN2 isoform not fully stated.
In a further data set the target is T1, TRF1 (UniProt P54274).
T1 sequence (looked up, limits assumed): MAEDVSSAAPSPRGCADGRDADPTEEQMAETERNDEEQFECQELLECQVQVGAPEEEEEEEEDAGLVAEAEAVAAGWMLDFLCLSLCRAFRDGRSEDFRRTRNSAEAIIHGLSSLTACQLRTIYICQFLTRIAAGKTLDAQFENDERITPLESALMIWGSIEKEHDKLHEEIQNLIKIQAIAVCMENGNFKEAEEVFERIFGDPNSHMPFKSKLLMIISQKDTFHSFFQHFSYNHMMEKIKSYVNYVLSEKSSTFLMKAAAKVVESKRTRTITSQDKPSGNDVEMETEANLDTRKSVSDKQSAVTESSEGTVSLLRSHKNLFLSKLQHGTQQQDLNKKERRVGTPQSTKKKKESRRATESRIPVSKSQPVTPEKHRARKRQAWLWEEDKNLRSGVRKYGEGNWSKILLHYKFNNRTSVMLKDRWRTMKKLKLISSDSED
Kind of data set: TIRFM DNA-DNA bridging. The settings on record: transient pairing by TRF1 alone.

Consider “TCTGTAGTGTATTAGGGTTAGGGTTAGGGTTAGGGTTAGGGTTAGGGATGTAGGTATGT (double strand) [Cy3 telomeric DNA, 6 TTAGGG (59 bp)]”, for which the binding result in the data set on TRF1 + TIN2S (partner DNA N2 on surface) and in the data set with TRF1 (partner DNA N2 on surface) was “binds” throughout.

In the case of “TCTGTAGTGTATTAGGGTTAGGGTTAGGGTTAGGGTTAGGGTTAGGGATGTAGGTATGTCACAGCATGA (double strand) [Cy5/biotin telomeric DNA, 6 TTAGGG (69 bp)]”, the binding result in the data set with TRF1 + TIN2S (partner DNA N3 (5 nM)) and with TRF1 (partner DNA N3 (5 nM)) was “binds” throughout.
